From paper PMC10985088 (Scientific Reports, 2024) come the findings set out here.

Strings that start with PEPTIDE1 are HELM notation: dots part the residues, brackets hold end groups and non-standard residues.

One data set can be described thus: general procedure: solution-phase peptide synthesis; EDCI, HOAt. Particulars: late stage modification step.
Turning to “PEPTIDE1{[Nap2CO].[dS].A.[NMeCys].[NMeVal]}|PEPTIDE2{[Nap2CO].[dS].A.[NMeAlaB].[NMeVal]}$PEPTIDE1,PEPTIDE2,5:R2-2:R3|PEPTIDE2,PEPTIDE1,5:R2-2:R3|PEPTIDE1,PEPTIDE2,4:R3-4:R3$$$V2.0”, the step yield was 33%. Still for that read-out and setting: under “PEPTIDE1{[Qn2CO].[dS].A.[NMeCys].[NMeVal]}|PEPTIDE2{[Qn2CO].[dS].A.[NMeAlaB].[NMeVal]}$PEPTIDE1,PEPTIDE2,5:R2-2:R3|PEPTIDE2,PEPTIDE1,5:R2-2:R3|PEPTIDE1,PEPTIDE2,4:R3-4:R3$$$V2.0” stands 20%.

The data set is the same for the next values; noted with them: late stage modification step, bicyclic, sequence written open.
In turn, “{N-(Quinoline-3-carbonyl)-D-Ser-L-Ala-N-Boc-N-Me-L-Cys-N-Me-L-Val}2 sulfide (5)” gave a step yield of 17%.

For the substance “{N-(Quinoline-6-carbonyl)-D-Ser-L-Ala-N-Boc-N-Me-L-Cys-N-Me-L-Val}2 sulfide (6)”, the step yield worked out at 19%.

The same data set, now with this note: late stage modification step, over 2 steps.
On to “(N-Boc-D-Ser-L-Ala-N-Boc-N-Me-L-Cys-N-Me-L-Val)2 sulfide (22)”, for which the step yield is on record as 39% over 2 steps.

Take “PEPTIDE1{[4BzBz].[dS].A.[NMeCys].[NMeVal]}|PEPTIDE2{[4BzBz].[dS].A.[NMeAlaB].[NMeVal]}$PEPTIDE1,PEPTIDE2,5:R2-2:R3|PEPTIDE2,PEPTIDE1,5:R2-2:R3|PEPTIDE1,PEPTIDE2,4:R3-4:R3$$$V2.0”: the step yield is 71% over 2 steps.

In the case of “PEPTIDE1{[AQ2CO].[dS].A.[NMeCys].[NMeVal]}|PEPTIDE2{[AQ2CO].[dS].A.[NMeAlaB].[NMeVal]}$PEPTIDE1,PEPTIDE2,5:R2-2:R3|PEPTIDE2,PEPTIDE1,5:R2-2:R3|PEPTIDE1,PEPTIDE2,4:R3-4:R3$$$V2.0”, the step yield worked out at 62% over 2 steps.

In turn, “PEPTIDE1{[Pyz2CO].[dS].A.[NMeCys].[NMeVal]}|PEPTIDE2{[Pyz2CO].[dS].A.[NMeAlaB].[NMeVal]}$PEPTIDE1,PEPTIDE2,5:R2-2:R3|PEPTIDE2,PEPTIDE1,5:R2-2:R3|PEPTIDE1,PEPTIDE2,4:R3-4:R3$$$V2.0” yielded a step yield of 49% over 2 steps.

The same data set, now with this note: late stage modification step, over 2 steps, bicyclic, sequence written open.
The substance “{N-(Benzofurane-2-carbonyl)-D-Ser-L-Ala-N-Boc-N-Me-L-Cys-N-Me-L-Val}2 sulfide (13)” returned a step yield of 85% over 2 steps. Same read-out and setting: under “{N-(Benzothiophene-2-carbonyl)-D-Ser-L-Ala-N-Boc-N-Me-L-Cys-N-Me-L-Val}2 sulfide (14)” stands 87% over 2 steps. Same read-out and setting: under “{N-(Benzoxazole-5-carbonyl)-D-Ser-L-Ala-N-Boc-N-Me-L-Cys-N-Me-L-Val}2 sulfide (15)” stands 33% over 2 steps; under “{N-(Benzoxazole-6-carbonyl)-D-Ser-L-Ala-N-Boc-N-Me-L-Cys-N-Me-L-Val}2 sulfide (16)”, 54% over 2 steps; under “{N-(Benzthiazole-6-carbonyl)-D-Ser-L-Ala-N-Boc-N-Me-L-Cys-N-Me-L-Val}2 sulfide (17)”, 51% over 2 steps. The same measure, in the same setting: under “{N-(Indol-2-carbonyl)-D-Ser-L-Ala-N-Boc-N-Me-L-Cys-N-Me-L-Val}2 sulfide (8)” stands 30% over 2 steps. Turning to “{N-(Indol-5-carbonyl)-D-Ser-L-Ala-N-Boc-N-Me-L-Cys-N-Me-L-Val}2 sulfide (10)”, the step yield is given as 57% over 2 steps. With “{N-(Indol-6-carbonyl)-D-Ser-L-Ala-N-Boc-N-Me-L-Cys-N-Me-L-Val}2 sulfide (11)”, the step yield is given as 28% over 2 steps. Still for that read-out and setting: to “{N-(Indol-7-carbonyl)-D-Ser-L-Ala-N-Boc-N-Me-L-Cys-N-Me-L-Val}2 sulfide (12)” belongs 28% over 2 steps.

Still in this data set, the particulars now being: late stage modification step, over 3 steps, bicyclic, sequence written open.
In turn, “{N-(Indol-3-carbonyl)-D-Ser-L-Ala-N-Boc-N-Me-L-Cys-N-Me-L-Val}2 sulfide (9)” came in with a step yield of 19% over 3 steps.
